Measured data: PubChem BioAssay AID720505 (Drosophila RNAi Screening Center, 2013)

- Purpose: 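Knock-downs that reduce calcium influx once internal stores are emptied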 (primary screen)
- Cells: Drosophila S2R+ cells
- Reagents: long dsRNA against Drosophila genes
- Treatment: thapsigargin (2 µM) in calcium-free buffer to empty internal stores, then 2 mM calcium added back
- Detection: 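Stores emptied by 2 µM thapsigargin without calcium, then 2 mM calcium re-added; fluo-4 fluorescence followed by FLIPR in 384-well plates, per-well averaged endpoint, raw; two screen passes, some wells retested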
- Reading the numbers: calcium signal and retest calcium signal: higher = more calcium entry after store depletion
- Hit rule: 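About 1500 genes called as lowering calcium entry, by varying amounts, judged against per-plate control wells with STIM1 as positive and Rho1 as negative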
- Meaning of the calls: active = called as lowering calcium entry; inactive = not called
The deposit covers about 20,000 reagents; shown is an unselected part of those with a known target gene and a result. In the full data, about 2,100 (10%) are marked active. 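Raw plate signals without normalisation; calls rest on control-based scores that were not deposited; replicate 2 separates called from uncalled poorly.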 A plus sign joins genes that one reagent is predicted to hit. Reagent sequences are not shown. Not stated in the record: the amount of reagent, the time to read-out.

| Gene | DRSC id | calcium signal, replicate 1 | calcium signal, replicate 2 | retest calcium signal, replicate 1 | retest calcium signal, replicate 2 | Outcome |
| --- | --- | --- | --- | --- | --- | --- |
| Zasp66 | DRSC10631 | 78.8 | 95.4 | – | – | inactive |
| Zasp66 | DRSC10632 | 96.9 | 87.4 | – | – | inactive |
| E(spl)m7-HLH | DRSC16696 | 227 | 110 | – | – | inactive |
| CG4036 | DRSC02735 | 128 | 160 | – | – | inactive |
| CG5171 | DRSC02823 | 88 | 233 | – | – | inactive |
| CG17068 | DRSC20545 | 122 | 143 | – | – | inactive |
| CG17264 | DRSC00500 | 97.7 | 224 | – | – | inactive |
| lncRNA:CR31526 | DRSC21520 | 157 | 131 | – | – | inactive |
| CG11629 | DRSC03695 | 89.7 | 100 | – | – | inactive |
| CG17746 | DRSC08521 | 98.8 | 83.4 | – | – | inactive |
| CG17746 | DRSC23333 | 96.6 | 137 | – | – | inactive |
| Psi | DRSC07519 | 138 | 138 | – | – | inactive |
| CG33306 | DRSC01899 | 92.5 | 83.4 | – | – | inactive |
| Csp | DRSC11860 | 103 | 112 | – | – | inactive |
| asRNA:CR43477 + CG12256 | DRSC14484 | 92.9 | 96.6 | – | – | inactive |
| CG16890 | DRSC01890 | 76.6 | 108 | – | – | inactive |
| jp | DRSC02213 | 102 | 88.8 | – | – | inactive |
| jp | DRSC02744 | 210 | 180 | – | – | inactive |
| CG7914 | DRSC20068 | 77.4 | 134 | – | – | active |
| CG2260 | DRSC18223 | 86.7 | 82.3 | – | – | inactive |
| Ankle2 | DRSC20105 | 120 | 96.1 | – | – | inactive |
| Ankle2 | DRSC20106 | 80.1 | 126 | – | – | inactive |
| Or59a | DRSC04631 | 108 | 153 | – | – | inactive |
| CYTB (retired record) | DRSC21272 | 180 | 84.6 | – | – | inactive |
| CG31249 | DRSC16248 | 70.4 | 140 | – | – | active |
| Rab40 | DRSC19820 | 61.5 | 106 | – | – | active |
| Gr64d + Gr64e | DRSC08446 | 95 | 81.5 | 86.3 | 84.9 | inactive |
| CG4009 | DRSC15536 | 154 | 244 | – | – | inactive |
| CG11050 | DRSC02125 | 140 | 229 | – | – | inactive |
| CG12448 | DRSC01967 | 117 | 93.7 | – | – | inactive |
| CG42354 + CG42353 | DRSC20172 | 146 | 142 | – | – | inactive |
| Bicra | DRSC14417 | 220 | 154 | – | – | inactive |
| Irk3 | DRSC02047 | 93 | 89.4 | – | – | inactive |
| schlank | DRSC18102 | 68.4 | 278 | – | – | active |
| schlank | DRSC18313 | 70.6 | 270 | – | – | active |
| HnRNP-K | DRSC07585 | 102 | 93.2 | 107 | 128 | inactive |
| HnRNP-K | DRSC22734 | 122 | 206 | – | – | inactive |
| CG4960 | DRSC15684 | 168 | 119 | – | – | inactive |
| CG3107 | DRSC04888 | 120 | 112 | – | – | inactive |
| CG12299 | DRSC02158 | 81.9 | 94 | – | – | inactive |
| Vha16-1 | DRSC05020 | 71.2 | 182 | – | – | active |
| ocn | DRSC17020 | 198 | 143 | – | – | inactive |
| CG12725 | DRSC19501 | 127 | 93.5 | – | – | inactive |
| PolZ1 | DRSC06800 | 187 | 173 | – | – | inactive |
| TotE | DRSC21355 | 117 | 104 | – | – | inactive |
| Ets65A | DRSC09968 | 110 | 55 | – | – | inactive |
| Ets65A | DRSC10738 | 92.9 | 140 | – | – | inactive |
| Ets65A | DRSC11164 | 87.6 | 116 | – | – | inactive |
| CG13171 | DRSC06299 | 107 | 152 | – | – | inactive |
| CG4476 | DRSC10424 | 108 | 99.8 | – | – | inactive |
| rumi | DRSC15177 | 183 | 232 | – | – | inactive |
| CG14770 | DRSC17947 | 60.8 | 84.5 | – | – | active |
| Gfat1 | DRSC21219 | 148 | 101 | – | – | inactive |
| Ugt301D1 | DRSC02021 | 90 | 88.9 | – | – | inactive |
| CG7083 | DRSC11136 | 71.7 | 66.9 | – | – | inactive |
| CR43359 | DRSC03744 | 63.7 | 7461 | – | – | active |

8 successive records from above, for reference:
| Gene | DRSC id | calcium signal, replicate 1 | calcium signal, replicate 2 | retest calcium signal, replicate 1 | retest calcium signal, replicate 2 | Outcome |
| --- | --- | --- | --- | --- | --- | --- |
| Ets65A | DRSC11164 | 87.6 | 116 | – | – | inactive |
| CG13171 | DRSC06299 | 107 | 152 | – | – | inactive |
| CG4476 | DRSC10424 | 108 | 99.8 | – | – | inactive |
| rumi | DRSC15177 | 183 | 232 | – | – | inactive |
| CG14770 | DRSC17947 | 60.8 | 84.5 | – | – | active |
| Gfat1 | DRSC21219 | 148 | 101 | – | – | inactive |
| Ugt301D1 | DRSC02021 | 90 | 88.9 | – | – | inactive |
| CG7083 | DRSC11136 | 71.7 | 66.9 | – | – | inactive |
